The text below walks through data of PMC10954759.

By UniProt entry, the sequences of proteins in these tests, tags left out. Where a name states a change or a piece, a line headed by the entry shows the natural chain unless it says otherwise.
UniProt Q9H3D4: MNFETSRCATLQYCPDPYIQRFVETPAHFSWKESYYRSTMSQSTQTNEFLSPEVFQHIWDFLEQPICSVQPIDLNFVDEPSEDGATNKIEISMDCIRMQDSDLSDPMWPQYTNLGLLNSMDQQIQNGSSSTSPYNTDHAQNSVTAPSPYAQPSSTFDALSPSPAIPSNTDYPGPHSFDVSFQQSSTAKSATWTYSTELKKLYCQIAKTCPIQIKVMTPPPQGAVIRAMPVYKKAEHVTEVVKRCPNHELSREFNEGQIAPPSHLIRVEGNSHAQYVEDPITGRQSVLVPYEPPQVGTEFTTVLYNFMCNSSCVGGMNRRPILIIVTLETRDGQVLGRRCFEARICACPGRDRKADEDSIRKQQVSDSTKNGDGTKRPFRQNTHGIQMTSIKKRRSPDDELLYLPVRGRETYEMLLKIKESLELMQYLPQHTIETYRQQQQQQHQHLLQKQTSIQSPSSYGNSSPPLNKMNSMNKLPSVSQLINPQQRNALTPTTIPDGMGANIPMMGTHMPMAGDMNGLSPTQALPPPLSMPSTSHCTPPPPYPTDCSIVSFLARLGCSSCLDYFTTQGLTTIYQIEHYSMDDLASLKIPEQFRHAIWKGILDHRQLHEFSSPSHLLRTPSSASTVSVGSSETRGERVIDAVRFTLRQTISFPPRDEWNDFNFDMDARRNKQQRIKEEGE
UniProt P42224: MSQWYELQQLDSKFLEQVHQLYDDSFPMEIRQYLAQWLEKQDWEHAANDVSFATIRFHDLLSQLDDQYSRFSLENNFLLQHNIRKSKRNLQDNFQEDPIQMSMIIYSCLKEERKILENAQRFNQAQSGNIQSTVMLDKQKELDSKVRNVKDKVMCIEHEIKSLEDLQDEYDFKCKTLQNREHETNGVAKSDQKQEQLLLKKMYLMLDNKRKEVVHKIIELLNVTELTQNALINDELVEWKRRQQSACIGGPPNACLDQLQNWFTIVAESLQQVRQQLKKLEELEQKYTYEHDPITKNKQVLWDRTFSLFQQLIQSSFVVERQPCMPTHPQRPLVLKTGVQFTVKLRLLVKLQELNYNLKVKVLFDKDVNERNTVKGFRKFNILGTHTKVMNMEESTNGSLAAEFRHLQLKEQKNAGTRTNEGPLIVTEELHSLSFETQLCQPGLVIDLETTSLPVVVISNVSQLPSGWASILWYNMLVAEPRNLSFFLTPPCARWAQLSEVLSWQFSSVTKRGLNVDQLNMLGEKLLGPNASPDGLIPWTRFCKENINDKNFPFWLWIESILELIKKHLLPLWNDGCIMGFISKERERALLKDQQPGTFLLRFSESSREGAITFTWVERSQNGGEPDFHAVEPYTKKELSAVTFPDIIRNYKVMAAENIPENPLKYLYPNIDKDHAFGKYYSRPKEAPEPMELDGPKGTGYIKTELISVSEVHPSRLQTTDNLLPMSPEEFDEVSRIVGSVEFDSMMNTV

Results are given in words; binding and its absence hold for the method and conditions named. In cells and extracts the contact can be indirect. Binding can be weak; no strength is given.

For this assay, the target named is TP63 (endogenous, human TT squamous cancer cells) (human (endogenous in TT)) (UniProt Q9H3D4). The experiment in a line: co-IP; endogenous proteins; 500 µg cell lysate (RIPA buffer with protease and phosphatase inhibitors) incubated with the indicated antibody or IgG overnight at 4 °C, then Protein A/G for 4 h at 4 °C, Western blotting; reciprocal precipitation with TP63 or p-STAT1 antibodies; human TT and murine MOC22 …. In general terms: Immunoblotting shows a protein as a band on a membrane.

Consider “STAT1 phosphorylated at Tyr701 (endogenous, human TT cells) (from UniProt P42224 1-750)”, for which the binding result was “binds weakly”.

For the substance “STAT1 phosphorylated at Ser727 (endogenous, human TT cells) (from UniProt P42224 1-750)”, the binding result is “binds”.
